Here are results for one molecule from patent publication US20200325218A1.

Protein sequences, listed by entry. Tags and fused reporters are not part of them. Lines headed by an entry give the natural chain unless they say otherwise; changes in a name come on top.
UniProt Q969D9: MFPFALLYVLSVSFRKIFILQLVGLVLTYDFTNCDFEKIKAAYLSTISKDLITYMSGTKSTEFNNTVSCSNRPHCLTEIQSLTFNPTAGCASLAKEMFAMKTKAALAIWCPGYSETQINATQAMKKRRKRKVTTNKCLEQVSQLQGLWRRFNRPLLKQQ

For the assay, the target named is human TSLP (HEK) (human) (UniProt Q969D9). In words: solution equilibrium titration (SET).

These are yes or no findings as the source states them, for the method shown. Some binding calls cover weakened binding; strength is not graded here.

B1: anti-TSLP Fab1 (Fab, V domains shown)
VH: EVQLVESGGGLVKPGGSLRLSCAASGFTFSDYWMHWVRQAPGKGLEWVGHIKSKTDAGTTDYAAPVKGRFTISRDDSKNTLYLQMNSLKTEDTAVYYCAREIYYYAFDSWGQGTLVTVSS
VL: SYELTQPLSVSVALGQTARITCSGDNIGSKYVHWYQQKPGQAPVLVIYGDNERPSGIPERFSGSNSGNTATLTISRAQAGDEADYYCQAADWVDFYVFGGGTKLTVLG
With B1, the binding result is “binds”.
